The results in this text go back to PubChem BioAssay AID901 (National Center for Advancing Translational Sciences (NCATS), 2007).

SMILES strings stand for the structures. Some of the results follow. Further columns of the screen follow, without active or inactive calls. Compounds called inactive in the main read-out are mostly missing here. The note in brackets gives the kind of curve behind each potency; many fits are weak.

This experiment can be described thus: qHTS Assay for Identifying the Cell-Membrane Permeable IMPase Inhibitors. Particulars: CHO-M1 cells, IP1 accumulation, HTRF TR-FRET ratio; measured here: donor channel 620 nm AC50. (qHTS replaces the single test concentration by a dilution series.)
The AC50 is the concentration at which the activity in the assay is half-maximal. With `Nc1nnnn1/N=C/c1cccc(OCc2ccccc2Cl)c1`, the AC50 is 200 nM [falling, single point].
The figure for `Cc1nnc(NC(=O)CSc2nc(C(C)C)nc3ccccc23)s1` is 5620 nM [rising, single point].
The figure for `Brc1ccc2ncnc(NCc3ccccc3)c2c1` is 501 nM [falling, full curve, poor fit].
In the case of `O=C(Cc1coc(-c2ccc(F)cc2)n1)N1CCOCC1`, the AC50 is 6310 nM [falling, single point].
The figure for `CCC(=Nc1ccc(N)cc1)C1=C(O)C(C(=O)OC)C(C)(C)CC1=O` (configuration not stated) is 12600 nM [falling, partial curve].
To `O=C(O)c1ccc(NC(=O)c2ccc(Br)c(S(=O)(=O)N3CCCC3)c2)cc1` belongs 15800 nM [falling, single point]; to `Cn1c(C(=O)OCC(=O)NCc2cccs2)cc2sccc21`, 316 nM [rising, full curve, poor fit].
The figure for `Cc1cccc(CN2C(=O)N/C(=C/c3cc(C)n(-c4cc(C)ccn4)c3C)C2=O)c1` is 31.6 nM [falling, full curve, poor fit]; for `CCS(=O)(=O)Nc1ccc(-c2nnc(SCC(=O)c3cccc(OC)c3)o2)cc1` it is 1000 nM [falling, full curve, poor fit]; for `CN(c1cccc(NC(=O)Nc2ccc(Cl)cc2)c1)S(C)(=O)=O` it is 3.98 nM [rising, full curve, poor fit].
`CC(=O)CC(C)(C)S(=O)(=O)c1ccc(Oc2ccc(S(=O)(=O)C(C)(C)CC(C)=O)cc2)cc1`: the AC50 was 316 nM [falling, single point].
To `Cc1cc(NC(=O)CSc2nnc(CNc3ccc(F)cc3)n2C2CCCCC2)no1` belongs 501 nM [falling, partial curve]; to `Cc1ccc(Cl)cc1NC(=O)CSc1nnc(C)n1-c1ccccc1`, 79.4 nM [rising, full curve]; to `CCNC(=O)CC1SC(=Nc2ccccc2C)N(C)C1=O` (configuration not stated), 25.1 nM [falling, full curve].
Consider `O=S(=O)(c1ccccc1)c1nc(-c2ccccc2F)oc1N1CCOCC1`, for which the half-maximal activity concentration (AC50) was 3550 nM [falling, single point].
The figure for `COCCCNC(=O)Cn1nnc(-c2ccc(NC(=O)c3ccc(F)cc3)cc2)n1` is 79.4 nM [falling, full curve, poor fit].
The figure for `CC(=O)c1c(COC(=O)c2ccncc2)nc2ccccc2[n+]1[O-]` is 794 nM [falling, full curve, poor fit]; for `Cc1cc(NCCCN2CCOCC2)n2ncc(-c3ccccc3)c2n1` it is 631 nM [rising, full curve, poor fit].
To `CC(=O)C(C)Oc1ccc2c3c(c(=O)oc2c1C)CCCC3` (configuration not stated) belongs 2510 nM [falling, full curve, poor fit]; to `Cc1nc2ccccc2c2oc(C(=O)NCCCN3CCCC3=O)cc12`, 35500 nM [falling, single point]; to `O=C(c1ccccc1)N1CCN(CC2CC=CCC2)CC1` (configuration not stated), 2240 nM [falling, full curve, poor fit].
Turning to `COc1ccnc(N2CCN(c3ccccc3)CC2)c1C#N`, the AC50 was 6310 nM [falling, single point].
As for `COc1ccc(NC(=O)C2CCCN2C(=O)NCc2ccccc2)cc1OC` (configuration not stated), the AC50 is 1580 nM [rising, partial curve, poor fit].
To `Cc1c(C(=O)O)sc2ncnc(N3CCCCC3C)c12` (configuration not stated) belongs 15800 nM [rising, single point]; to `COc1ccc(C2c3c(-c4ccc(F)cc4)n[nH]c3C(=O)N2c2ccccc2)cc1OC` (configuration not stated), 282 nM [falling, full curve, poor fit].
To `Clc1ccccc1Oc1cnc2ccccc2n1` belongs 3.98 nM [rising, full curve, poor fit]; to `CCOC(=O)C1CCCN(C(=O)CNS(=O)(=O)c2ccc(Br)s2)C1` (configuration not stated), 25100 nM [falling, single point].
The figure for `O=C(Nc1c(C(=O)C2CC2)oc2ccccc12)c1ccc(Cl)cc1` is 5620 nM [rising, single point].
On to `CC1CCN(S(=O)(=O)c2cn(CC(=O)Nc3ccc(F)cc3)c(=O)c3ccccc23)CC1`, for which the AC50 was 35500 nM [rising, single point].
Take `O=c1cc(-c2cccc(O)c2)oc2c(O)c(O)ccc12`: the AC50 is 25100 nM [falling, partial curve, poor fit].
In the case of `COC(=O)c1cccc(NC(=O)c2ccco2)c1`, the AC50 is 501 nM [falling, full curve].
The figure for `Cc1cc(C)n2c(Nc3cccc(C(F)(F)F)c3)c(-c3ccsc3)nc2n1` is 141 nM [falling, full curve, poor fit]; for `O=C(c1ccc(Cl)c(S(=O)(=O)N2CCOCC2)c1)N1CCN(Cc2ccccc2)CC1` it is 158 nM [falling, full curve, poor fit].
The figure for `O=c1[nH]c2cc(Cl)ccc2c(O)c1-c1ccc(Oc2ccccc2)cc1` is 2.51 nM [rising, full curve, poor fit].
To `CCc1nnc(NC(=O)CSc2nc3c(cc2C#N)CCCC3)s1` belongs 31600 nM [rising, single point].
`CC(=O)c1cccc(N=C2C(=O)Nc3ccccc32)c1`: the AC50 was 3980 nM [rising, single point].
The figure for `COc1ccc(Cn2c(-c3ccc(OC)cc3)nc3c(c(=O)c4ccccc4n3C)c2=O)cc1` is 28200 nM [rising, single point]; for `CC1=C(C(N)=O)C(c2ccncc2)n2nc(-c3ccccc3Cl)nc2N1` (configuration not stated) it is 355 nM [rising, single point].
To `Cc1cc(N2C(=O)C(O)=C(C(=O)c3ccc(C)o3)C2c2cccs2)no1` (configuration not stated) belongs 15800 nM [rising, partial curve]; to `CCCC(=O)Nc1ccc(-c2nc3cc(C)c(C)cc3o2)c(O)c1`, 3160 nM [falling, single point].
Consider `O=C(CN1CCN(S(=O)(=O)c2ccc(F)cc2)CC1)Nc1cc(C(F)(F)F)ccc1Cl`, for which the concentration at half-maximal activity (AC50) was 12.6 nM [rising, full curve, poor fit].
To `CCN(CC)S(=O)(=O)c1ccc(OC)c(NC(=O)COc2ccc3c(C)cc(=O)oc3c2)c1` belongs 35500 nM [rising, partial curve].
